{"source": "paper PMC4013717", "about": "“AFF4 binding to Tat-P-TEFb indirectly stimulates TAR recognition of super elongation complexes at the HIV promoter” (eLife, 2014)", "key": {"[1]": {"biological_target": "human cyclin T1 1–264 (human) (UniProt O60563)", "assay": "crystal structure; quaternary complex of Tat 1–57, AFF4 2–73, CDK9 1–330 and CycT1 1–264; 3.0 Å; three complexes in the a.u.; crystals from 2.4 M sodium formate, 10 mM MgCl2 at 18°C; both purified"}, "[2]": {"biological_target": "Flag-tagged truncated AFF1 (residues 1–308), WT (UniProt P51825)", "assay": "co-IP; anti-Flag immunoprecipitates from nuclear extracts of HeLa cells expressing Flag-tagged AFF1 (residues 1–308); Western blot"}, "[3]": {"biological_target": "Flag-tagged truncated AFF1 (residues 1–308) V67A/F70A (UniProt P51825)", "assay": "co-IP; anti-Flag immunoprecipitates from nuclear extracts of HeLa cells expressing Flag-tagged AFF1 (residues 1–308); Western blot"}, "[4]": {"biological_target": "Flag-tagged truncated AFF1 (residues 1–308) V67A (UniProt P51825)", "assay": "co-IP; anti-Flag immunoprecipitates from nuclear extracts of HeLa cells expressing Flag-tagged AFF1 (residues 1–308); Western blot"}, "[5]": {"biological_target": "Flag-tagged truncated AFF1 (residues 1–308) F70A (UniProt P51825)", "assay": "co-IP; anti-Flag immunoprecipitates from nuclear extracts of HeLa cells expressing Flag-tagged AFF1 (residues 1–308); Western blot"}, "[6]": {"biological_target": "Tat-P-TEFb complex (HIV-1 Tat 1–57, CDK9 1–330, cyclin T1 1–264) (HIV-1 | human) (UniProt P04608)", "assay": "crystal structure; quaternary complex of Tat 1–57, AFF4 2–73, CDK9 1–330 and CycT1 1–264; 3.0 Å; three complexes in the a.u.; crystals from 2.4 M sodium formate, 10 mM MgCl2 at 18°C; both purified"}, "HIV-1 Tat 1–57 (HIV-1)": {"biological_target": "HIV-1 Tat 1–57 (HIV-1) (UniProt P04608)", "assay": "crystal structure; quaternary complex of Tat 1–57, AFF4 2–73, CDK9 1–330 and CycT1 1–264; 3.0 Å; three complexes in the a.u.; crystals from 2.4 M sodium formate, 10 mM MgCl2 at 18°C; both purified"}}, "note": "No constants are given. Whether binding was seen depends on the method and setting. For some of these results: In cells and extracts the contact can be indirect. Some results given as binding are weak or reduced against the parent protein; the word gives no strength.", "data": [{"molecule": "HIV-1 Tat 1–57 (from UniProt P04608 1-57) (domain or fragment)", "values": [{"measurement": "binding", "setting": "[1]", "result": "binds"}]}, {"molecule": "CDK9 in HeLa nuclear extract (from UniProt P50750 1-372)", "values": [{"measurement": "binding", "setting": "[2]", "result": "binds"}, {"measurement": "binding", "setting": "[3]", "result": "binds"}, {"measurement": "binding", "setting": "[4]", "result": "binds"}, {"measurement": "binding", "setting": "[5]", "result": "binds"}]}, {"molecule": "AFF4 fragment 2–73 (domain or fragment, UniProt Q9UHB7 2-73, looked up, AFF4 (SEC scaffold), residues 2-73; The His-tag is TEV-protease-cleavable; also called AFF4_(2–73); source: E. coli, purified) NREDRNVLRMKERERRNQEIQQGEDAFPPSSPLFAEPYKVTSKEDKLSSRIQSMLGNYDEMKDFIGDRSIPK", "values": [{"measurement": "binding", "setting": "[6]", "result": "binds"}, {"measurement": "binding", "setting": "HIV-1 Tat 1–57 (HIV-1)", "result": "binds"}]}]}
